Data taken from US20030224390A1, “Method of identifying conformation-sensitive binding peptides and uses thereof” (Karo Bio AB, priority 2000, published 2003).
Results are given in words; binding and its absence hold for the method and conditions named. Some results given as binding are weak or reduced against the parent protein; the word gives no strength.

By UniProt entry, the sequences of proteins in these tests, tags left out.
UniProt Q92731: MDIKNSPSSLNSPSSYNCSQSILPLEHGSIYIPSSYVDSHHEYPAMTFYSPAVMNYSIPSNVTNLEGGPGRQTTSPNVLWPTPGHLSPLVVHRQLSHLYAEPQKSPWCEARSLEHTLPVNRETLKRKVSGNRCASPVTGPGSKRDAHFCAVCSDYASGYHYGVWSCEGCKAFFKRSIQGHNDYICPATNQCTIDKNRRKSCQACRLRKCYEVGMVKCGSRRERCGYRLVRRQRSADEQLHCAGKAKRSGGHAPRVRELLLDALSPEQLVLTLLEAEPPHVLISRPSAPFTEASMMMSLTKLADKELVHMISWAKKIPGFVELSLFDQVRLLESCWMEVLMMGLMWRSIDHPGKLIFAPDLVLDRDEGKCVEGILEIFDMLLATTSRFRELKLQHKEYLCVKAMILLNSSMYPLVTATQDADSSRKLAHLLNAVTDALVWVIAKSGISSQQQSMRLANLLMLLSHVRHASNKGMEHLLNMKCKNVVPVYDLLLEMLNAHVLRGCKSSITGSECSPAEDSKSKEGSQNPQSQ
UniProt P03372: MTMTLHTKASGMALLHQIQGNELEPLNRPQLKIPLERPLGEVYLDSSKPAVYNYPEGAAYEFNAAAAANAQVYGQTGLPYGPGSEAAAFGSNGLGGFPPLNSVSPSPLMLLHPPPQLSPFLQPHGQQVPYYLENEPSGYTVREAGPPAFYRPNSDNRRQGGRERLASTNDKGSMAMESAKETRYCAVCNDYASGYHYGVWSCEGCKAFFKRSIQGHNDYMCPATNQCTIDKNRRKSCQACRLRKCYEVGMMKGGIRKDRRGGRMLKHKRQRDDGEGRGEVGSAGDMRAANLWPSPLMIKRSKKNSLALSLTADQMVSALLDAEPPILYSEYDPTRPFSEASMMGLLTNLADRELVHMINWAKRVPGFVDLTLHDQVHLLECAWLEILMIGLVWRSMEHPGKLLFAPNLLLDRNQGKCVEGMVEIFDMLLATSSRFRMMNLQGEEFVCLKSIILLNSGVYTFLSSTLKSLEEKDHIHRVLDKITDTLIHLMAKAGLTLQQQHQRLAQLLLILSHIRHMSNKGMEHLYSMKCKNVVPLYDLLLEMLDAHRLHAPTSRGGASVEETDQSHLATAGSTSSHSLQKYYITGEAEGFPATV

Legend:
[1] = target: ER β (immobilized, in vitro phage assays) (UniProt Q92731); assay: phage ELISA; premarin 10 µM
[2] = target: ER α (immobilized, in vitro phage assays) (UniProt P03372); assay: phage ELISA; premarin 10 µM
[3] = target: ER β (immobilized, in vitro phage assays) (UniProt Q92731); assay: phage ELISA; ICI 182,780 1 µM
[4] = target: ER α (immobilized, in vitro phage assays) (UniProt P03372); assay: phage ELISA; ICI 182,780 1 µM
[5] = target: ER β (immobilized, in vitro phage assays) (UniProt Q92731); assay: phage ELISA; progesterone 1 µM
[6] = target: ER α (immobilized, in vitro phage assays) (UniProt P03372); assay: phage ELISA; progesterone 1 µM
[7] = target: ER β (immobilized, in vitro phage assays) (UniProt Q92731); assay: phage ELISA; nafoxidine 10 µM
[8] = target: ER α (immobilized, in vitro phage assays) (UniProt P03372); assay: phage ELISA; nafoxidine 10 µM
[9] = target: ER β (immobilized, in vitro phage assays) (UniProt Q92731); assay: phage ELISA; estriol 1 µM
[10] = target: ER α (immobilized, in vitro phage assays) (UniProt P03372); assay: phage ELISA; estriol 1 µM
[11] = target: ER β (immobilized, in vitro phage assays) (UniProt Q92731); assay: phage ELISA; raloxifene 1 µM
[12] = target: ER α (immobilized, in vitro phage assays) (UniProt P03372); assay: phage ELISA; raloxifene 1 µM
[13] = target: ER β (immobilized, in vitro phage assays) (UniProt Q92731); assay: phage ELISA; 16α-OH estrone 10 µM
[14] = target: ER α (immobilized, in vitro phage assays) (UniProt P03372); assay: phage ELISA; 16α-OH estrone 10 µM
[15] = target: ER β (immobilized, in vitro phage assays) (UniProt Q92731); assay: phage ELISA; estradiol 1 µM
[16] = target: ER α (immobilized, in vitro phage assays) (UniProt P03372); assay: phage ELISA; estradiol 1 µM
[17] = target: ER β (immobilized, in vitro phage assays) (UniProt Q92731); assay: phage ELISA; DES 1 µM
[18] = target: ER α (immobilized, in vitro phage assays) (UniProt P03372); assay: phage ELISA; DES 1 µM
[19] = target: ER β (immobilized, in vitro phage assays) (UniProt Q92731); assay: phage ELISA; 4-OH tamoxifen 1 µM
[20] = target: ER α (immobilized, in vitro phage assays) (UniProt P03372); assay: phage ELISA; 4-OH tamoxifen 1 µM
[21] = target: ER β (immobilized, in vitro phage assays) (UniProt Q92731); assay: phage ELISA; buffer
[22] = target: ER α (immobilized, in vitro phage assays) (UniProt P03372); assay: phage ELISA; buffer
[23] = target: ER β (immobilized, in vitro phage assays) (UniProt Q92731); assay: phage ELISA; clomiphene 10 µM
[24] = target: ER α (immobilized, in vitro phage assays) (UniProt P03372); assay: phage ELISA; clomiphene 10 µM
[25] = target: ER α (immobilized, in vitro phage assays) (UniProt P03372); assay: phage binding, unliganded ER α
[26] = target: ER β (immobilized, in vitro phage assays) (UniProt Q92731); assay: phage binding, unliganded ER β

Binder	binding [1]	binding [2]	binding [3]	binding [5]	binding [6]	binding [7]	binding [8]	binding [9]	binding [10]	binding [11]	binding [12]	binding [13]	binding [14]	binding [15]	binding [16]	binding [17]	binding [18]	binding [19]	binding [21]	binding [23]	also measured
SSWDMHQFFWEGVSR [α/β III (AB3)]	binds	binds	binds	binds	binds	binds	binds	binds	binds	binds	binds	binds	binds	binds	binds	binds	binds	binds	binds	binds	binding [4]: binds; binding [20]: binds; binding [22]: binds; binding [24]: binds
SREWEDGFGGRWLSR (also called 4Tβ; 4T-β) [β I (B1)]	binds			binds		binds		binds		binds		binds		binds		binds		binds	binds	binds	
SRLPPSVFSMCGSEVCLSR [α/β IV (AB4)]	binds	binds	binds	binds	binds	binds	binds	binds	binds	binds	binds	binds	binds	binds	binds	binds	binds	binds	binds	binds	binding [20]: binds; binding [22]: binds; binding [24]: binds
SSLDLSQFPMTASFLRESR (also called 35Eβ) [β II (B2)]	binds							binds				binds		binds		binds			binds		
HGPLTLNLLRSSGG [#41 ER + estradiol (Table 3)]																					binding [25]: binds; binding [26]: binds

Further lines, with some results ahead:

binding [1]	binding [2]	binding [3]	binding [5]	binding [6]	binding [7]	binding [8]	binding [9]	binding [10]	binding [11]	binding [12]	binding [13]	binding [14]	binding [15]	binding [16]	binding [17]	binding [18]	binding [19]	binding [21]	binding [23]	Binder	also measured
binds	binds		binds	binds	binds	binds	binds	binds	binds	binds	binds	binds	binds	binds	binds	binds	binds	binds	binds	SSPGSREWFKDMLSR (also called 14Tβ; 14T-β) [α/β V (AB5)]	binding [4]: binds; binding [20]: binds; binding [22]: binds; binding [24]: binds
binds		binds	binds		binds		binds		binds		binds		binds		binds		binds	binds	binds	SSEACVGRWMLCEQLGVSR [β III (B3)]	
